Measurements from the supplement of paper PMC10849652.
Some of the results follow.

Sequences of proteins named here, by UniProt entry; tags and fusion partners are left off. A change or cut given only in a name is not applied to a line headed by its entry.
UniProt Q9ULK4: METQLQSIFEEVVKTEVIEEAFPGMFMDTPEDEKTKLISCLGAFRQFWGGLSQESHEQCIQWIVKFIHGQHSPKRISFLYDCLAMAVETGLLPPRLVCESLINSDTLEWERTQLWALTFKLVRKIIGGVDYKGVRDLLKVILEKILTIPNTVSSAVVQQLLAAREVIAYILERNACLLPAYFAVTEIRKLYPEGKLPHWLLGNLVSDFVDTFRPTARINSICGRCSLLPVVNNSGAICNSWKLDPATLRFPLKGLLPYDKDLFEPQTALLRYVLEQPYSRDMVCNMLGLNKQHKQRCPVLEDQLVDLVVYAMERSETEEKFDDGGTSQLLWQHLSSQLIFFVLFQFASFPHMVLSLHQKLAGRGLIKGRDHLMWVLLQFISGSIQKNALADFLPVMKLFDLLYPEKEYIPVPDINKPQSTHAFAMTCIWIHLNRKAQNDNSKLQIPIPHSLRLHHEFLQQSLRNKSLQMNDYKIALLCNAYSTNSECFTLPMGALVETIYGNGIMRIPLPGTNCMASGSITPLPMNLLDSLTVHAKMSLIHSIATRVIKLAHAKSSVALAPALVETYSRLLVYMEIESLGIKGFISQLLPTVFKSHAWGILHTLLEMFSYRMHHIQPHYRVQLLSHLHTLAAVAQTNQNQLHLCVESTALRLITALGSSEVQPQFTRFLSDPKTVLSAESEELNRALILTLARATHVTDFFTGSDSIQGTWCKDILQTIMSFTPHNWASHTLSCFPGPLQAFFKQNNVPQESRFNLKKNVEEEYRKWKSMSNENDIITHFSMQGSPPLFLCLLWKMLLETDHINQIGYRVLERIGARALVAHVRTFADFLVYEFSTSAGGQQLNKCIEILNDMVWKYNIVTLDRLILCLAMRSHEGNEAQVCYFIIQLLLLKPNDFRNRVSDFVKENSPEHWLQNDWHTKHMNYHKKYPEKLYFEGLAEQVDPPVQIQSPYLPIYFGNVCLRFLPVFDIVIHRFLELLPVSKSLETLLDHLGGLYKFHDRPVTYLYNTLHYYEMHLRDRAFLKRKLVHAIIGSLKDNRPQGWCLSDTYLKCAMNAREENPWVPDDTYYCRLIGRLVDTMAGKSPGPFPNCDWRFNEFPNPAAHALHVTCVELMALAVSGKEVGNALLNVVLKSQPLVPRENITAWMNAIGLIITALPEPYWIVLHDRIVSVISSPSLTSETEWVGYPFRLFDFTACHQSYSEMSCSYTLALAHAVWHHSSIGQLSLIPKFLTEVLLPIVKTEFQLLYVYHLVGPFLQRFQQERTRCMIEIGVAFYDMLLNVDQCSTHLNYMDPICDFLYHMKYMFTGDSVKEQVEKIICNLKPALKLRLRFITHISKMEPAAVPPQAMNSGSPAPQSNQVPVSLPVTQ
UniProt Q9H8H3: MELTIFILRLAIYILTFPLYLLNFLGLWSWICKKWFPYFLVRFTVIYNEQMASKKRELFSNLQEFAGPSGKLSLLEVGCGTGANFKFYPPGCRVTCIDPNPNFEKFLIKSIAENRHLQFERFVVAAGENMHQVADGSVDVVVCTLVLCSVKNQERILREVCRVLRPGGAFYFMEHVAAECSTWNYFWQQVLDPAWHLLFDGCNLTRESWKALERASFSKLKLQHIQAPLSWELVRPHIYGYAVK
UniProt Q7L590: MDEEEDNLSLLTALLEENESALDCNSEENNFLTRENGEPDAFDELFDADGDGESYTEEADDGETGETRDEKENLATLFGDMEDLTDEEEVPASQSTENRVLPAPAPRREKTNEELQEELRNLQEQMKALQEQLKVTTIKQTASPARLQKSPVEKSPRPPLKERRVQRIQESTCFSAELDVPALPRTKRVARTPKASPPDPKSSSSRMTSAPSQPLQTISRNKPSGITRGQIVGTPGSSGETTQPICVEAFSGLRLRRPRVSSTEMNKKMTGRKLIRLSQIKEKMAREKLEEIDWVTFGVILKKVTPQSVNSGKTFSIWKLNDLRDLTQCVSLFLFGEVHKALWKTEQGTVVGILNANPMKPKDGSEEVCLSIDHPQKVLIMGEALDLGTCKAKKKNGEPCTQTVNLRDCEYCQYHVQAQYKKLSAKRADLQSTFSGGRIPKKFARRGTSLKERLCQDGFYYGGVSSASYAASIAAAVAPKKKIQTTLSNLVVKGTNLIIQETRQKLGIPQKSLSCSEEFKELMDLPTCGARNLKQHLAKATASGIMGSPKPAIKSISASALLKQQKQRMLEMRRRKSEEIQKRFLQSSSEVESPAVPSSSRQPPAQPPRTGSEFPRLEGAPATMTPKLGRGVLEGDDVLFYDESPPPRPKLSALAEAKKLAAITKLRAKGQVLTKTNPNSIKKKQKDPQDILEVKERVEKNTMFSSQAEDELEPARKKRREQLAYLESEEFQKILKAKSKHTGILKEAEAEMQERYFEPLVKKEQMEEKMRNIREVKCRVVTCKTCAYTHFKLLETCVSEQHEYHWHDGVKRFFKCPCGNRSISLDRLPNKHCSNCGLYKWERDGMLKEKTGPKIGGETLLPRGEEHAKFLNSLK
UniProt Q71SY5: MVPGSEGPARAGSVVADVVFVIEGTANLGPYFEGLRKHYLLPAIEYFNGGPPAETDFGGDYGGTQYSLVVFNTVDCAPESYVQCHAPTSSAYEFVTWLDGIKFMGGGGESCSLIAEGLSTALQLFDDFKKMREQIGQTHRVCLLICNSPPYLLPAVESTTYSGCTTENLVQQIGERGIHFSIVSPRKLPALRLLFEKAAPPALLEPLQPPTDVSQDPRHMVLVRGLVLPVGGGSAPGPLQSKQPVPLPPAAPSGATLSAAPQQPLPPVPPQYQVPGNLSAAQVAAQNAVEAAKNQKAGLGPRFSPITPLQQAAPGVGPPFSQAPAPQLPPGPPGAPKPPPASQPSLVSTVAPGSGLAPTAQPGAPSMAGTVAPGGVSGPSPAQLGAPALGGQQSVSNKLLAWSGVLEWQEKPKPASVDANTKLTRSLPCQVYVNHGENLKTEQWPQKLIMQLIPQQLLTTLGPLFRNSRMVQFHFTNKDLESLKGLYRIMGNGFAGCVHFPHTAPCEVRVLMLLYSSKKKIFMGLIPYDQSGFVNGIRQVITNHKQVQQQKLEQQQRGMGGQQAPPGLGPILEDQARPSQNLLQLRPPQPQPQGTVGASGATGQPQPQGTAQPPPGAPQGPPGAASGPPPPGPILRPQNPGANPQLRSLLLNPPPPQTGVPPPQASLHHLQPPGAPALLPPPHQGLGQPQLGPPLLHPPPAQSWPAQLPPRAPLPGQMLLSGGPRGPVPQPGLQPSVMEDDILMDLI
UniProt Q5VZF2: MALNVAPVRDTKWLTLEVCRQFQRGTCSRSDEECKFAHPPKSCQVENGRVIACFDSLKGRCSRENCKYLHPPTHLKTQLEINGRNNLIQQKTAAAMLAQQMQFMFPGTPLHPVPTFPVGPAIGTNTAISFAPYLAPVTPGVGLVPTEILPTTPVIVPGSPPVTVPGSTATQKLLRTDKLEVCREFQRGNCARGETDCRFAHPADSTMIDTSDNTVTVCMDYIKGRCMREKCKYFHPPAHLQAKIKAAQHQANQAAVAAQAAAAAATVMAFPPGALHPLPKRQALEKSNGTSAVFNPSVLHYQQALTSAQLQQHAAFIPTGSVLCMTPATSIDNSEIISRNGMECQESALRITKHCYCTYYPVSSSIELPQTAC
UniProt Q6ZSS7: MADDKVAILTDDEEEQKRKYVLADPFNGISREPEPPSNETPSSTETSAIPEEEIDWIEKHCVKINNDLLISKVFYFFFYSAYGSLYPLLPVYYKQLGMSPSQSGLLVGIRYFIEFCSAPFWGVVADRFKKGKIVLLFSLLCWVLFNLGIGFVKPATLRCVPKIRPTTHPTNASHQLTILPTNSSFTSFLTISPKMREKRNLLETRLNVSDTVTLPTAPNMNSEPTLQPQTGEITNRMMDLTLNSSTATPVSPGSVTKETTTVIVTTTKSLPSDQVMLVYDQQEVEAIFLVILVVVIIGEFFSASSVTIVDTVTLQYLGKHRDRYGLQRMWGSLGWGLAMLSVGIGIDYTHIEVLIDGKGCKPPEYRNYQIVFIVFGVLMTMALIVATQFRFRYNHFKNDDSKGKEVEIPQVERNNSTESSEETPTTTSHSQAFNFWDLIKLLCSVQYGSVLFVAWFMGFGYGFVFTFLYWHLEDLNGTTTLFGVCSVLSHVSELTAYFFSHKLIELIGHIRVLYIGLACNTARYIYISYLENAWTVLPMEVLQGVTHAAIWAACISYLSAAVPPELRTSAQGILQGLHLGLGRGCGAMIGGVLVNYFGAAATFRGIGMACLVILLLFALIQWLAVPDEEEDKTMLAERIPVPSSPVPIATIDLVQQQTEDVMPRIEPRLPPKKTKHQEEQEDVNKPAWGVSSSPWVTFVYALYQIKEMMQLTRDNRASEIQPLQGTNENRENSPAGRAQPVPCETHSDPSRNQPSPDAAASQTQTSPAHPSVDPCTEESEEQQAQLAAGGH
UniProt O95402: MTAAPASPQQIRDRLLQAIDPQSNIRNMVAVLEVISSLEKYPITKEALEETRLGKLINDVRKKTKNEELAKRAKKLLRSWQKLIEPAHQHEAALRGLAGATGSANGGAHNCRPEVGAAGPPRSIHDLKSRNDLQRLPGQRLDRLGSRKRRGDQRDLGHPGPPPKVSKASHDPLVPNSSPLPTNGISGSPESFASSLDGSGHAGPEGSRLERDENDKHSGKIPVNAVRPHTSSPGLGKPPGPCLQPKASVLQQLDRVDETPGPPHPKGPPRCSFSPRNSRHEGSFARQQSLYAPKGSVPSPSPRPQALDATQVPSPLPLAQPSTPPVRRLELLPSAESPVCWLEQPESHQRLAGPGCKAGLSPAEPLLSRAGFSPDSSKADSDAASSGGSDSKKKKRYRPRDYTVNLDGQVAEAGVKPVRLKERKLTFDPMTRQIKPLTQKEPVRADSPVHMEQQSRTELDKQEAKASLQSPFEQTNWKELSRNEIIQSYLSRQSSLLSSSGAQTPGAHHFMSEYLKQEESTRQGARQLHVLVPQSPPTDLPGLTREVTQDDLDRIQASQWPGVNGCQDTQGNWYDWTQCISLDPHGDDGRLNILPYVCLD
UniProt Q9H1A3: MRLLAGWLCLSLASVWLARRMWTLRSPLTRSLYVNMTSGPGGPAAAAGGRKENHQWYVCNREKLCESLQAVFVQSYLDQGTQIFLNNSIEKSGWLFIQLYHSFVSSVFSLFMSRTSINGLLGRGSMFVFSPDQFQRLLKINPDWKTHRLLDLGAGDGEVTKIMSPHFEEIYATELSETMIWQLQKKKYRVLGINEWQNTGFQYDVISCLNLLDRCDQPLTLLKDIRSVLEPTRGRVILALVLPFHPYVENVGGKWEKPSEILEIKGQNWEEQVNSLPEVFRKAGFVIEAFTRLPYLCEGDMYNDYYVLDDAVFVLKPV
UniProt P23368: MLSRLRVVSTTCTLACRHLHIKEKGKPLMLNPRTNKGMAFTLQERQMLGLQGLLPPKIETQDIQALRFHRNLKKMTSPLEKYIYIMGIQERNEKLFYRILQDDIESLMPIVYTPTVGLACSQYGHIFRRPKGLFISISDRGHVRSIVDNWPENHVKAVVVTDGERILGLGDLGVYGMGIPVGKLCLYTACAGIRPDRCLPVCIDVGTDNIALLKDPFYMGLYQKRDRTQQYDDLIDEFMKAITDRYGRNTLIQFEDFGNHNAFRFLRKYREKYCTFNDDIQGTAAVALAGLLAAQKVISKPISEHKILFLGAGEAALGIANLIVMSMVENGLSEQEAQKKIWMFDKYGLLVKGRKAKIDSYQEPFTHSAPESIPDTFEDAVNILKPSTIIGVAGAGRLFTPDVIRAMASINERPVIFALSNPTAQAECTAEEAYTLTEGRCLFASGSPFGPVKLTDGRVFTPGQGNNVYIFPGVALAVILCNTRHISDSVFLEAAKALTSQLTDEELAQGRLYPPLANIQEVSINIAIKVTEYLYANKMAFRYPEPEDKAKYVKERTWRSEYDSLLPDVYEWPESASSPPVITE
UniProt Q9Y6X3: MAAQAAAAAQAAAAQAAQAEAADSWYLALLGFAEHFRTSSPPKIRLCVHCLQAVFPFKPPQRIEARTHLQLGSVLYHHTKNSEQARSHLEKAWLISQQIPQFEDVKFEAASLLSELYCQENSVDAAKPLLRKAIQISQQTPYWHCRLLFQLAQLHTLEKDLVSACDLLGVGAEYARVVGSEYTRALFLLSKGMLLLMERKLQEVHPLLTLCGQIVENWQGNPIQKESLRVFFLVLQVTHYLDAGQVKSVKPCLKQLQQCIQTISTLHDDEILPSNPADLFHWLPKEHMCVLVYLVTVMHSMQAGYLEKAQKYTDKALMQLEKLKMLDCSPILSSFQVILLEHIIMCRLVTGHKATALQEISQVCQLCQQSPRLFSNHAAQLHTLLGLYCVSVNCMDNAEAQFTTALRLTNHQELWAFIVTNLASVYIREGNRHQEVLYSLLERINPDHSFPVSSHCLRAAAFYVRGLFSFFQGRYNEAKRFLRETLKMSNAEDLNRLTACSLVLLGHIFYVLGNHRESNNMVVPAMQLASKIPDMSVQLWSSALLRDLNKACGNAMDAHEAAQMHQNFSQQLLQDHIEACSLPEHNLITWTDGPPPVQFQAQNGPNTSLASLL

Columns and labels:
Experiment in all cases: log2 fold change, soluble protein after heating vs DMSO (PISA); higher = thermal stabilisation; K562 lysate, 10 uM; active = over 0.2 and 3.5 SD of the protein, either way, in both replicates (recomputed)
[1] = compound: CN1CC[C@H](c2c(O)cc(O)c3c(=O)cc(-c4ccccc4Cl)oc23)[C@H](O)C1 [alvocidib]
In short: (§1)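 To prepare the extract, K562 pellets were dounce-homogenised in PBS pH 7.4 with 1 mM MgCl2, giving crude material at 1 mg/mL protein. This was treated with 10 μM compound for 30 min, then heated in aliquots for 3 min over 48°C-58°C before pooling and addition of NP-40 to 0.5% at 4°C. Centrifugation at 21,000xg for 90 min left soluble protein in the supernatant, which TMTpro 16plex LC-MS/MS quantified with equalised channel sums. Results are log-two fold changes in thermal stability compared with solvent controls, from duplicates.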

[2] = compound: CN1CCc2c(c3ccccc3n2Cc2ccc(C(=O)NO)cc2)C1 [Tubastatin A]
In short: as §1

[3] = compound: CNC(=O)C1=CC=CC=C1NC2=NC(=NC=C2Cl)NC3=C(C=C(C=C3)N4CCOCC4)OC
In short: as §1

[4] = compound: CNC(=O)c1ccc(Nc2ncc(C(F)(F)F)c(NCc3nccnc3N(C)S(C)(=O)=O)n2)cc1 [defactinib]
In short: as §1

[5] = compound: CNc1nc(-c2ccc3c(N)n[nH]c3c2)cc(N2C[C@@H](C(=O)NC3CCCCC3)CC[C@H]2C)n1
In short: as §1

[6] = compound: COC(=O)N[C@@H](C)CNc1nccc(-c2cn(C(C)C)nc2-c2cc(Cl)cc(NS(C)(=O)=O)c2F)n1 [encorafenib]
In short: as §1

[7] = compound: COC(=O)[C@H](CCSC)NC(=O)C1=C(C=C(C=C1)NC[C@H](CS)N)C2=CC=CC=C2
In short: as §1

[8] = compound: COc1cc(Nc2ncc3c(n2)-c2ccc(Cl)cc2C(c2c(F)cccc2OC)=NC3)ccc1C(=O)O [alisertib]
In short: as §1

[9] = compound: COc1cc2nc(-c3cc(F)ccc3O)nc(N[C@@H]3CNC[C@H]3C(C)(C)O)c2cc1OC
In short: as §1

[10] = compound: COc1cc2ncnc(Nc3ccc(F)c(Cl)c3)c2cc1OCCCN1CCOCC1 [gefitinib]
In short: as §1

Measured: log2 fold change

MED23 (UniProt Q9ULK4)
inactive: [1] -0.013 | [2] -0.074 | [3] 0.033 | [4] 0.012 | [5] -0.021 | [6] -0.008 | [7] -0.003 | [8] 0.013 | [9] -0.01 | [10] 0.026

MED31 (UniProt Q9Y3C7)
inactive: [1] -0.08 | [2] -0.056 | [3] 0.088 | [5] 0.068 | [8] 0.029 | [9] 0.025 | [10] -0.031

METTL26 (UniProt Q96S19)
inactive: [1] 0.006 | [2] -0.027 | [3] 0.172 | [4] 0.215 | [5] -0.033 | [6] -0.033 | [7] 0.056 | [9] -0.002

METTL5 (UniProt Q9NRN9)
inactive: [1] 0.004 | [2] 0.046 | [3] -0.02 | [4] -0.019 | [5] -0.01 | [6] -0.033 | [7] 0.001 | [8] 0.01 | [9] 0.011 | [10] -0.018

MCUB (UniProt Q9NWR8)
inactive: [1] 0.019 | [2] 0.105 | [3] -0.032 | [5] -0.074 | [8] 0.121 | [9] -0.062 | [10] -0.046

METTL7A (UniProt Q9H8H3)
inactive: [1] -0.079 | [2] 0.014 | [3] 0.003 | [4] 0.011 | [5] 0.041 | [6] -0.041 | [7] 0.151 | [8] -0.036 | [9] -0.01 | [10] -0.046

MDN1 (UniProt Q9NU22)
inactive: [1] 0.001 | [2] -0.057 | [3] -0.004 | [4] 0.054 | [5] -0.012 | [6] 0.018 | [7] 0.095 | [8] -0.001 | [9] 0.024 | [10] 0.015

MCM10 (UniProt Q7L590)
inactive: [1] 0.053 | [2] 0.023 | [3] 0.245 | [4] 0.047 | [5] 0.137 | [8] -0.029 | [9] -0.047 | [10] 0.027

MECR (UniProt Q9BV79)
inactive: [1] 0.018 | [2] 0.014 | [3] 0.01 | [4] 0.007 | [5] 0.053 | [6] -0.06 | [7] 0.049 | [8] 0 | [9] 0.04 | [10] -0.011

MED25 isoform 3 (UniProt Q71SY5)
inactive: [1] 0 | [2] 0.056 | [3] -0.033 | [5] -0.022 | [6] -0.123 | [7] 0.005 | [8] 0.125 | [9] 0.01 | [10] -0.029

Two entries picked at random from those above:
MDN1 (UniProt Q9NU22)
inactive: [1] 0.001 | [2] -0.057 | [3] -0.004 | [4] 0.054 | [5] -0.012 | [6] 0.018 | [7] 0.095 | [8] -0.001 | [9] 0.024 | [10] 0.015

MECR (UniProt Q9BV79)
inactive: [1] 0.018 | [2] 0.014 | [3] 0.01 | [4] 0.007 | [5] 0.053 | [6] -0.06 | [7] 0.049 | [8] 0 | [9] 0.04 | [10] -0.011

Next records.

MBNL2 (UniProt Q5VZF2)
inactive: [1] -0.049 | [2] 0.087 | [3] 0.066 | [4] 0.026 | [6] 0.027 | [7] -0.096 | [9] 0.062

MED18 (UniProt Q9BUE0)
inactive: [1] 0.052 | [2] -0.017 | [3] -0.024 | [4] 0.014 | [5] -0.037 | [6] -0.028 | [7] -0.022 | [8] -0.034 | [9] 0.007 | [10] -0.054

MED12 isoform 2 (UniProt Q93074)
inactive: [1] -0.022 | [2] -0.161 | [3] -0.02 | [4] 0.029 | [5] -0.041 | [6] 0.028 | [7] 0.06 | [8] 0.016 | [9] -0.011 | [10] 0.027

MFSD4B (UniProt Q5TF39)
inactive: [1] -0.043 | [2] 0.137 | [3] 0.033 | [5] -0.096 | [6] -0.232 | [7] 0.081 | [8] -0.059 | [9] 0.012 | [10] 0.103

MFSD6 (UniProt Q6ZSS7)
inactive: [1] 0.197 | [2] 0.06 | [3] 0.026 | [5] 0.094 | [6] 0.001 | [7] -0.085

MED29 (UniProt Q9NX70)
inactive: [1] 0.038 | [2] 0.15 | [3] 0.091 | [5] -0.067

METTL21A (UniProt Q8WXB1)
inactive: [1] 0.009 | [2] 0.052 | [3] 0.087 | [5] 0 | [8] 0.004 | [9] 0.011 | [10] -0.028

MDH1 isoform 3 (UniProt P40925)
inactive: [1] 0.011 | [2] 0.067 | [3] 0.012 | [4] -0.071 | [5] 0.016 | [6] -0.057 | [7] 0.006 | [8] 0.017 | [9] 0.008 | [10] -0.013

MEGF8 (UniProt Q7Z7M0)
inactive: [1] 0.03 | [2] 0.156 | [3] 0.058 | [5] -0.051 | [6] -0.01 | [7] 0.131

MED26 (UniProt O95402)
inactive: [1] 0.066 | [2] 0.094 | [3] -0.081 | [4] 0.078 | [6] 0.146 | [7] -0.109 | [8] -0.094 | [9] -0.002 | [10] 0.088

METTL9 (UniProt Q9H1A3)
inactive: [1] 0.372 | [2] -0.165 | [3] -0.005 | [5] -0.037 | [8] -0.023 | [9] 0.071 | [10] 0.044

MCFD2 (UniProt Q8NI22)
inactive: [1] 0.114 | [2] 0.071 | [3] -0.014 | [4] 0.215 | [5] 0.012 | [6] -0.02 | [7] 0.033 | [8] 0.064 | [9] -0.027 | [10] -0.19

MFSD8 (UniProt Q8NHS3)
inactive: [1] 0.025 | [2] -0.059 | [3] -0.088 | [4] -0.005 | [8] -0.134 | [9] -0.13 | [10] -0.121

MBD2 (UniProt Q9UBB5)
inactive: [1] 0.026 | [2] -0.06 | [3] 0.001 | [4] 0.022 | [5] 0.083 | [6] 0.013 | [7] -0.061 | [8] 0.031 | [9] 0.024 | [10] -0.016

ME2 (UniProt P23368)
inactive: [1] -0.006 | [2] 0.021 | [3] 0.001 | [4] 0.02 | [5] 0.062 | [6] -0.014 | [7] 0 | [8] 0.005 | [9] 0.012 | [10] -0.004

MAU2 (UniProt Q9Y6X3)
inactive: [1] 0.035 | [2] 0.016 | [3] 0.043 | [4] 0.145 | [6] 0 | [7] 0.056 | [9] 0.025

MCM3AP (UniProt O60318)
inactive: [1] 0.133 | [2] -0.11 | [3] -0.041 | [4] -0.109 | [5] 0.071 | [8] 0.075 | [9] 0.122 | [10] 0.101

MED24 (UniProt O75448)
inactive: [1] 0.029 | [2] -0.111 | [3] 0.038 | [4] 0.007 | [5] 0.004 | [6] 0.022 | [7] 0.022 | [8] -0.028 | [9] -0.002 | [10] -0.018

MED21 (UniProt Q13503)
inactive: [1] 0.111 | [2] 0.079 | [3] 0.087 | [5] 0.076 | [6] 0.057 | [7] -0.106 | [8] 0.03 | [9] -0.222 | [10] -0.221

MDP1 (UniProt Q86V88)
inactive: [1] -0.015 | [2] 0.035 | [3] -0.019 | [4] -0.01 | [5] -0.021 | [6] 0.004 | [7] -0.069 | [8] -0.02 | [9] 0.006 | [10] -0.042

MEX3B (UniProt Q6ZN04)
inactive: [1] -0.026 | [2] 0.09 | [3] 0.064 | [5] 0 | [6] -0.176 | [7] 0.056 | [8] 0.083 | [9] -0.076 | [10] -0.038
